US10688099B2, “Methods for modulating the amount of RNA transcripts” (PTC Therapeutics, Inc., priority 2013, dated 2020)
The source gives many values for each of these; only a part stands here.

System: RNA isoforms in PNN 1-46 SMA type I patient-derived fibroblasts
Assay: RNA Abundance Modulation (RNA isoform abundance, iFPM, HiSeq RNA sequencing)
Assay type: cell-based, human
Conditions: 3 μM
Experimental: Cells from a cell line of interest are cultured in conditions sufficient to yield the number of cells capable of generating enough RNA for subsequent sequencing steps. Cells from the tested cell line are contacted with a compound described herein.
To culture said cells, they are seeded, at appropriate concentrations in a volume of media in a cell culture container and incubated for 4, 5, 6, 7, 8, 9, 10, or more hours. A concentrated solution of compound in a vehicle (e.g., DMSO) is then added in sufficient volume to result in the intended final concentration of the compound, for example 100 nM, 500 nM, 1 μM, 5 μM, 10 μM, 15 μM, 20 μM, or more. The cells may also be treated with vehicle alone, as a control. A number of replicates of each concentration or control may be made (e.g., 2 replicates). The cells are then incubated at a constant temperature appropriate for cell culture of the particular cell line (e.g., 37° C.) for 6, 12, 18, 24, 48, or more hours. After incubation, the growth medium is removed and the cells are washed with the appropriate buffer (e.g., PBS). Cells are then removed from adherence to the cell culture container by treatment with a solution containing trypsin, and the trypsin subsequently quenched with the appropriate volume of buffer (e.g., DMEM-FBS). The cells are then pelleted with gentle centrifugation (e.g., ≤90×g centrifugal force) and resuspended in a buffer to lyse the cells for extraction of RNA. The cell lysates may then be frozen (e.g., at −80° C.) or, alternately, may immediately be used in a procedure to purify the RNA (e.g. by use of the RNEASY PLUS® minikit). The RNA from cell lysates is eluted in the appropriate volume of buffer (e.g., RNEASE-FREE H2O®). The resulting purified RNA may then be sequenced (e.g., using RNASeq) or analyzed using a human exon array (e.g., by GENECHIP® human exon array) to determine changes in the RNA levels in those cells treated with compound compared to those cells treated only with DMSO. The purified RNA may also be quantified by other methods known in the art.
Using the RNA data obtained from sequencing, exon array, or other methods, a statistical analysis can reveal changes in the RNA levels of compound-treated compared with control. For example, t-test p-values may be calculated for the data obtained through sequencing and exon array methods in order to compare compound-treated cells to those treated with the DMSO control. […] Analysis of the sequencing and exon array data may then also yield predictions about the cause of the aberrant amount of an RNA transcript in the cells (e.g., perturbation of RNA splicing, RNA transcription, or RNA stability). These predictions may be further confirmed by methods known in the art. For example, RT-PCR and RT-qPCR may be used to confirm the change in amount of RNA transcripts for one or more particular transcripts of interest.
Following the methods described above in Example 1, PNN 1-46 SMA type I patient-derived fibroblasts were treated with 300 nM or 3 μM Compounds 774 and 808 in 0.5% DMSO.
700,000 cells were seeded in 10 mL of medium (DMEM plus 10% FBS) in a T-75 flask. Cells were allowed to attach for at least 4 hrs, after which 50 μL of a 200× compound solution (100% DMSO) was added to each well, and the plate was incubated at 37° C. for 24 hrs.
At the end of the incubation period, the supernatant was removed and the cells where washed with PBS. TrypLE (Invitrogen) express solution was added (e.g. 1.5 mL per one T75 flask). The flasks were incubated for 3 to 5 min at 37° C. The trypsin was then quenched, e.g., by adding 10 mL DMEM-FBS.
Next, the cells were pelleted using gentle centrifugation without exceeding 90×g centrifugal force. The supernatant was removed and the cell pellet was re-suspended in 600 μL RLT buffer (the RLT buffer was supplemented with beta-mercaptoethanol according to the RNeasy protocol manual) by pipetting up and down until the pellet was completely dissolved […]

## CCc1nc(C)cn2nc(-c3cc(=O)n4cc(C5CCN(C)CC5)cc(C)c4n3)cc12 [Compound 774]
FDFT1 AK301617
  abs (Cpd-DMSO): 6 iFPM
  amp FC (x + 1): 5.46
  ave Cpd: 6 iFPM
FDFT1 AK311246
  FC (x + 1): 2.1901
  L2FC (x + 1): 1.131
  L2abs (Cpd-DMSO): 8.78
  abs (Cpd-DMSO): 438 iFPM
  amp FC (x + 1): 2.19
  ave Cpd: 805 iFPM
FDFT1 AK315993
  FC (x + 1): 1.1754
  L2FC (x + 1): 0.233
  L2abs (Cpd-DMSO): 2.24
  abs (Cpd-DMSO): 5 iFPM
  amp FC (x + 1): 1.18
  ave Cpd: 31 iFPM
FDFT1 AK316033
  FC (x + 1): 1.6594
  L2FC (x + 1): 0.731
  L2abs (Cpd-DMSO): 4.91
  abs (Cpd-DMSO): 30 iFPM
  amp FC (x + 1): 1.66
  ave Cpd: 75 iFPM
FDFT1 AK316351
  FC (x + 1): 1.0871
  L2FC (x + 1): 0.121
  L2abs (Cpd-DMSO): 2.70
  abs (Cpd-DMSO): 7 iFPM
  amp FC (x + 1): 1.09
  ave Cpd: 80 iFPM
FDFT1 AK316531
  FC (x + 1): 2.2247
  L2FC (x + 1): 1.154
  L2abs (Cpd-DMSO): 2.81
  abs (Cpd-DMSO): 7 iFPM
  amp FC (x + 1): 2.22
  ave Cpd: 12 iFPM
FDFT1 NM_004462
  FC (x + 1): 2.8352
  L2FC (x + 1): 1.503
  L2abs (Cpd-DMSO): 11.90
  abs (Cpd-DMSO): 3831 iFPM
  amp FC (x + 1): 2.84
  ave Cpd: 5917 iFPM
FDPS NM_002004
  FC (x + 1): 2.5881
  L2FC (x + 1): 1.372
  L2abs (Cpd-DMSO): 6.05
  abs (Cpd-DMSO): 66 iFPM
  amp FC (x + 1): 2.59
  ave Cpd: 107 iFPM
FDPS NM_001135821
  FC (x + 1): 1.6073
  L2FC (x + 1): 0.685
  L2abs (Cpd-DMSO): 7.83
  abs (Cpd-DMSO): 227 iFPM
  amp FC (x + 1): 1.61
  ave Cpd: 601 iFPM
FDPS NM_001135822
  FC (x + 1): 2.0949
  L2FC (x + 1): 1.067
  L2abs (Cpd-DMSO): 10.29
  abs (Cpd-DMSO): 1254 iFPM
  amp FC (x + 1): 2.09
  ave Cpd: 2398 iFPM
FDPS NM_001242824
  FC (x + 1): 1.7469
  L2FC (x + 1): 0.805
  L2abs (Cpd-DMSO): 9.81
  abs (Cpd-DMSO): 900 iFPM
  amp FC (x + 1): 1.75
  ave Cpd: 2103 iFPM
FDPS NM_001242825
  FC (x + 1): 2.1126
  L2FC (x + 1): 1.079
  L2abs (Cpd-DMSO): 4.98
  abs (Cpd-DMSO): 32 iFPM
  amp FC (x + 1): 2.11
  ave Cpd: 59 iFPM
FER AK293376
  FC (x + 1): 0.2860
  L2FC (x + 1): −1.806
  L2abs (Cpd-DMSO): 2.99
  abs (Cpd-DMSO): 8 iFPM
  amp FC (x + 1): 3.50
  ave Cpd: 2 iFPM
FER AK296874
  FC (x + 1): 2.6320
  L2FC (x + 1): 1.396
  L2abs (Cpd-DMSO): 0.71
  abs (Cpd-DMSO): 2 iFPM
  amp FC (x + 1): 2.63
  ave Cpd: 2 iFPM
FER AK299855
  FC (x + 1): 0.0926
  L2FC (x + 1): −3.433
  L2abs (Cpd-DMSO): 6.41
  abs (Cpd-DMSO): 85 iFPM
  amp FC (x + 1): 10.80
  ave Cpd: 8 iFPM
FER BC058030
  FC (x + 1): 0.7130
  L2FC (x + 1): −0.488
  L2abs (Cpd-DMSO): 0.21
  abs (Cpd-DMSO): 1 iFPM
  amp FC (x + 1): 1.40
  ave Cpd: 2 iFPM
FER NM_005246
  FC (x + 1): 0.3210
  L2FC (x + 1): −1.639
  L2abs (Cpd-DMSO): 7.86
  abs (Cpd-DMSO): 232 iFPM
  amp FC (x + 1): 3.12
  ave Cpd: 109 iFPM
FEZ1 AK296554
  FC (x + 1): 4.2444
  L2FC (x + 1): 2.086
  L2abs (Cpd-DMSO): 1.70
  abs (Cpd-DMSO): 3 iFPM
  amp FC (x + 1): 4.24
  ave Cpd: 3 iFPM
FEZ1 CCDS44758
  FC (x + 1): 1.3473
  L2FC (x + 1): 0.430
  L2abs (Cpd-DMSO): 0.99
  abs (Cpd-DMSO): 2 iFPM
  amp FC (x + 1): 1.35
  ave Cpd: 7 iFPM
FEZ1 NM_005103
  FC (x + 1): 1.6738
  L2FC (x + 1): 0.743
  L2abs (Cpd-DMSO): 7.49
  abs (Cpd-DMSO): 180 iFPM
  amp FC (x + 1): 1.67
  ave Cpd: 447 iFPM
FEZ1 NM_022549
  FC (x + 1): 0.0317
  L2FC (x + 1): −4.980
  L2abs (Cpd-DMSO): 6.11
  abs (Cpd-DMSO): 69 iFPM
  amp FC (x + 1): 31.56
  ave Cpd: 1 iFPM
FHOD3 AB051482
  FC (x + 1): 0.3516
